For some assays here: HELM strings list residues between dots; [ac] is acetyl, [am] amide, other brackets name non-standard units.

Data set [1] in a line: general procedure: Fmoc solid-phase peptide synthesis; Fmoc-Phe-Wang (TFF3_36-59); 2-chlorotrityl hydrazide resin (TFF3_1-35-NHNH2); Rink amide Protide resin (TFF3_10-50, TFF3); DIC/Oxyma Pure. The conditions noted are these: conjugation step.
A short description of data set [2]: Fmoc solid-phase peptide synthesis; Fmoc-Phe-Wang (TFF3_36-59); 2-chlorotrityl hydrazide resin (TFF3_1-35-NHNH2); Rink amide Protide resin (TFF3_10-50, TFF3); DIC/Oxyma Pure. The settings on record: whole synthesis, scale of the general procedure 0.1 mmol.

“PEPTIDE1{E.E.Y.V.G.L.S.A.N.Q.C.A.V.P.A.K.D.R.V.D.C.G.Y.P.H.V.T.P.K.E.C.N.N.R.G.C.C.F.D.S.R.I.P.G.V.P.W.C.F.K.P.L.Q.E.A.E.C.T.F}|PEPTIDE2{E.E.Y.V.G.L.S.A.N.Q.C.A.V.P.A.K.D.R.V.D.C.G.Y.P.H.V.T.P.K.E.C.N.N.R.G.C.C.F.D.S.R.I.P.G.V.P.W.C.F.K.P.L.Q.E.A.E.C.T.F}$PEPTIDE1,PEPTIDE1,11:R3-37:R3|PEPTIDE1,PEPTIDE1,21:R3-36:R3|PEPTIDE1,PEPTIDE1,31:R3-48:R3|PEPTIDE2,PEPTIDE2,11:R3-37:R3|PEPTIDE2,PEPTIDE2,21:R3-36:R3|PEPTIDE2,PEPTIDE2,31:R3-48:R3|PEPTIDE1,PEPTIDE2,57:R3-57:R3$$$V2.0”: in data set [1], the conjugation yield entry was “∼60%”.

Take “TFF3_1-59 (EEYVGLSANQCAVPAKDRVDCGYPHVTPKECNNRGCCFDSRIPGVPWCFKPLQEAECTF; three intrachain disulfide bonds (Cys^I-V, Cys^II-IV, Cys^III-VI); Cys^57 (Cys^VII) free)”: in data set [2], the outcome is on record as “Single-chain assembly of full-length TFF3_1-59 was not successful due to difficult sequence sections”.
